Assay results reported in patent publication US20090082217.
For at least one entry, the source does not settle the construct or the ends of the probe.

Test system: PDGF
Experiment: binding assay
Conditions: 2.5 uM switch, 1 uM PDGF, folded or branched DNA

CTTTTTATCGCCCGGGCACTGCAAGCAATTGCAGTCCCAATGGGCGGGCGATAAAAAGATCGATTCCCATCGATCTTTTTATCGCCC / GGGCGATAAAAAGATCGAT [PDGF switch with biotin linker complexed to streptavidin]
binding result (capillary electrophoresis, 2.5 uM linker-streptavidin, larger shifted peak than without linker, no distinct shifted peak without PDGF, label: fluorescein (switch), biotin (linker), variant of PDGF-responsive DNA switch): binds

CTTTTTATCGCCCGGGCACTGCAAGCAATTGCAGTCCCAATGGGCGGGCGATAAAAAGATCGATTCCCATCGATCTTTTTATCGCCC [PDGF-responsive DNA switch]
binding result (capillary electrophoresis mobility shift, room temperature, label: fluorescein): binds
